According to paper PMC9878124:
These are yes or no findings as the source states them, for the method shown. Binding seen in cells or lysates may run through a third protein. For part of these data: A result given as binding can be weak or reduced; the word gives no strength. Where a sequence is shown, tags or fusion partners need not be part of it.

What was measured:
Assay in all cases: split reporter; BiFC: BrFT-like proteins fused to nEYFP (pSPYNE-35S) and BrFD or AtFD fused to cEYFP (pSPYCE-35S), co-infiltrated with P19 into N. benthamiana leaves; confocal microscopy after 48 h
[1] = target: BrTSF fused to the N-terminal half of EYFP (BrTSF-nEYFP) (Brassica rapa ssp. pekinensis (Chinese cabbage))
[2] = target: BrFT1 fused to the N-terminal half of EYFP (BrFT1-nEYFP) (Brassica rapa ssp. pekinensis (Chinese cabbage))
[3] = target: BrFT2 fused to the N-terminal half of EYFP (BrFT2-nEYFP) (Brassica rapa ssp. pekinensis (Chinese cabbage))
[4] = target: BrBFT fused to the N-terminal half of EYFP (BrBFT-nEYFP) (Brassica rapa ssp. pekinensis (Chinese cabbage))
[5] = target: BrTSF^3m fused to the N-terminal half of EYFP (Brassica rapa ssp. pekinensis (Chinese cabbage))
[6] = target: BrBFT^3m fused to the N-terminal half of EYFP (Brassica rapa ssp. pekinensis (Chinese cabbage))

- binding [1]: no binding
- binding [2]: binds
- binding [3]: binds
- binding [4]: no binding
- binding [5]: no binding
- binding [6]: binds
B1: AtFD fused to the C-terminal half of EYFP (protein, UniProt Q84JK2 1-285)
chain: MLSSAKHQRNHRLSATNKNQTLTKVSSISSSSPSSSSSSSSTSSSSPLPSQDSQAQKRSLVTMEEVWNDINLASIHHLNRHSPHPQHNHEPRFRGQNHHNQNPNSIFQDFLKGSLNQEPAPTSQTTGSAPNGDSTTVTVLYSSPFPPPATVLSLNSGAGFEFLDNQDPLVTSNSNLHTHHHLSNAHAFNTSFEALVPSSSFGKKRGQDSNEGSGNRRHKRMIKNRESAARSRARKQAYTNELELEVAHLQAENARLKRQQDQLKMAAAIQQPKKNTLQRSSTAPF
